{
  "source": "paper PMC12428237",
  "about": "(Foods, 2025)",
  "experiment": "peptide made by a vendor (Fmoc solid-phase peptide synthesis)",
  "settings": "whole synthesis",
  "note": "End groups of sequences in plain letters are not given here.",
  "data": [
    {"sequence": "DEEENDQVK", "values": [
      {"measurement": "final HPLC purity", "result": ">98", "unit": "%"}
    ]}
  ]
}
